From PubChem BioAssay AID1487 (National Center for Advancing Translational Sciences (NCATS), 2009)
Some of the results follow. These are further read-outs of the screen, such as a control signal, another cell line or another target. No call is given for them. The list favours compounds with an active or inconclusive main result. Words in brackets tell the shape of the fitted curve; partial curves, single points and poor fits give uncertain potencies.

Assay: qHTS Assay for Modulators of Lamin A Splicing
Conditions: HeLa LMNA splicing GFP/RFP minigene ratio, 48 h
Method in brief: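 S3 HeLa cells stably expressing lamin A-EGFP splicing minigene plus DsRed2, 600 cells/well, 48 h compound exposure at 37C. Laser-scanning cytometry; analysed as GFP (500-530 nm)/RFP (575-640 nm) total intensity ratio; 0.5% DMSO vehicle.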

[1] = measured here: GFP splicing reporter channel
[2] = measured here: RFP viability control channel

SMILES | AC50 [1] | AC50 [2]
Cc1nc2ccccn2c1C(=O)/C=C/c1ccc(F)cc1 | 7.08 µM [falling, partial curve] | 17.8 µM [falling, partial curve]
CN(CC(=O)Nc1nc2ccc(F)cc2s1)S(=O)(=O)c1ccc(Cl)cc1 | – | 31.6 µM [rising, single point]
COc1cccc(Nc2ncc3nc(-c4ccccc4)c(=O)n(C)c3n2)c1 | – | 14.1 µM [falling, partial curve, poor fit]
C/C(=N\NC(=O)c1cccc(Br)c1)c1cccc(NC(=O)c2ccc(C)o2)c1 | 0.355 µM [rising, partial curve, poor fit] | 0.891 µM [rising, full curve, poor fit]
OC(CNc1ccccc1)Cn1ccc2ccccc21 (stereo not given) | 0.447 µM [falling, partial curve, poor fit] | 2 µM [falling, partial curve, poor fit]
COc1ccc(C(=O)Nc2ccc(S(=O)(=O)NC(C)C)cc2)cc1 | – | 5.01 µM [rising, partial curve, poor fit]
COc1ccc(Nc2oc(COc3ccccc3OC)nc2C#N)cc1 | – | 0.0708 µM [rising, full curve, poor fit]
C/C(=C\CO)CCC(C)CCCC(C)CCCC(C)C (stereo not given) | 14.1 µM [rising, single point] | –
CSc1nc(C)cc(SCC(=O)N/N=C/c2ccccc2)n1 | 35.5 µM [rising, single point] | 31.6 µM [rising, single point]
COc1ccc(C2CC(=O)c3sc(NC(C)=O)nc3C2)cc1 (stereo not given) | 10 µM [rising, partial curve, poor fit] | 11.2 µM [rising, partial curve, poor fit]
Cc1cc(C)c(NC(=O)CCn2nnc3ccccc32)c(C)c1 | 1.41 µM [rising, partial curve] | –
CCn1c(/C=N/c2nc3ccccc3n2C)nc2ccccc21 | 35.5 µM [rising, single point] | –
Cn1c(=O)cc(SCC(=O)Nc2cccnc2)c2ccccc21 | 35.5 µM [rising, single point] | 35.5 µM [rising, single point]
CCC(=O)c1cc(F)c(N2CCN(C(=O)Cc3ccccc3)CC2)cc1C | – | 10 µM [rising, partial curve]
Cc1ccc(N2CC(C(=O)Nc3cc(C)ccc3F)CC2=O)cc1 (stereo not given) | 15.8 µM [rising, single point] | 14.1 µM [rising, single point]
CCn1c2ccccc2c2cc(NC(=O)COC(=O)C3CCC(=O)N3)ccc21 (stereo not given) | – | 5.01 µM [rising, full curve]
C(=C/c1ccccc1)/CN1CCN(C(c2ccccc2)c2ccccc2)CC1 | 0.0355 µM [falling, full curve, poor fit] | 0.158 µM [falling, single point]
CCOc1ccc(CC(=O)NNC(=O)NC2CCCCC2)cc1 | 0.0562 µM [rising, full curve, poor fit] | 4.47 µM [rising, partial curve, poor fit]
O=C(COc1ccc(C(=O)c2ccccc2)cc1)NC1CCCCCC1 | 0.794 µM [rising, partial curve] | 14.1 µM [rising, partial curve]
CCOC(=O)c1c(C)[nH]c(C)c1S(=O)(=O)N1CCCC(C(=O)N2CCN(c3cc(C)ccc3C)CC2)C1 (stereo not given) | 10 µM [falling, partial curve] | 14.1 µM [falling, single point]
COc1ccc(NC(=O)C2CCN(S(=O)(=O)c3cccc4cccnc34)CC2)cc1OC | – | 7.94 µM [rising, partial curve, poor fit]
Cn1c2ccccc2c2ncn(CCC3=CCCCC3)c(=O)c21 | – | 35.5 µM [rising, partial curve, poor fit]
CCc1ccc(NC(=O)c2ccc(F)c(S(=O)(=O)NCC3COc4ccccc4O3)c2)cc1 (stereo not given) | – | 35.5 µM [rising, single point]
CCOc1cccc(C(=O)Nc2cccc(C(=O)NC(C)(C)C)c2)c1 | – | 28.2 µM [rising, partial curve]
FC(F)(F)c1cc(CO[C@H]2CCCN[C@H]2c2ccccc2)cc(C(F)(F)F)c1 | 22.4 µM [falling, partial curve, poor fit] | 35.5 µM [falling, partial curve, poor fit]
COc1ccc(NC2c3ccccc3C(=O)N2c2cccnc2)cc1Cl (stereo not given) | – | 12.6 µM [rising, partial curve]
CCOc1ccc(C(=O)CSCCC(=O)O)cc1 | 1.26 µM [rising, full curve, poor fit] | –
CC1=C(C)/C(=N\OS(=O)(=O)c2ccc(C)cc2)C=CC1=O | – | 35.5 µM [rising, single point]

SMILES | AC50 [1] | AC50 [2]
O=C(CSc1nnnn1-c1ccc(O)cc1)Nc1cccc(S(=O)(=O)N2CCCC2)c1 | – | 35.5 µM [rising, single point]
Cc1ccc(NCCC(=O)c2ccc(Br)cc2)cc1 | 35.5 µM [falling, single point] | –
O=C1Nc2ccccc2Oc2cc(Oc3ccc(Cl)cc3)ccc21 | – | 35.5 µM [falling, partial curve, poor fit]
C=CCn1c(C2CC2)n[nH]c1=S | 3.98 µM [falling, partial curve] | –
CCN(CC)S(=O)(=O)c1cccc(C(=O)NC(C(=O)NC2=NCCS2)C(C)C)c1 (stereo not given) | – | 10 µM [rising, partial curve]
Cc1ccc(Nc2c([N+](=O)[O-])c(=O)oc3ccccc23)cc1C | – | 5.62 µM [falling, single point]
Cc1cc(NCC(c2ccccc2)c2ccccc2)n2ncnc2n1 | 14.1 µM [falling, partial curve, poor fit] | 4.47 µM [falling, full curve]
CC(C)(C)C1=CC(=O)C(=O)C(C(C)(C)C)=C1 | 35.5 µM [rising, single point] | –
Cc1c(C2N3CC4(C)CN2CC(C)(C3)C4=O)c2ccccc2n1C (stereo not given) | – | 2 µM [falling, partial curve, poor fit]
COc1ccc(NC(=O)N2CCN(c3nc(-c4cccc(OC)c4)cs3)CC2)cc1 | – | 17.8 µM [rising, partial curve, poor fit]
CNC(=O)c1ccccc1S(=O)(=O)c1ccccc1C#N | 3.16 µM [rising, single point] | –
CCc1ccc2nc(N3CCN(C(=O)c4ccco4)CC3)sc2c1 | 0.708 µM [falling, full curve] | –
CCOc1cc(C(N)=O)cc(Cl)c1OCC | – | 0.00891 µM [falling, full curve, poor fit]
O=C(OC(c1ccc(NS(=O)(=O)c2ccccc2)cc1)(C(F)(F)F)C(F)(F)F)c1ccccc1 | 14.1 µM [rising, single point] | 12.6 µM [rising, partial curve]
C=CCN1C(=O)/C(=C/c2ccccc2)S/C1=N/c1nccs1 | 12.6 µM [rising, partial curve, poor fit] | 22.4 µM [rising, partial curve, poor fit]
Cc1ccc(C)c(S(=O)(=O)Nc2ccc3sc(C)nc3c2)c1 | 17.8 µM [rising, single point] | 35.5 µM [rising, single point]
Cc1ccc(C)c(N2CCN(C(=O)c3c4c(nc5ccccc35)C(=O)N(C3CCCCC3)C4)CC2)c1 | 0.0126 µM [falling, full curve, poor fit] | –
COc1ccc(-n2nnc3c(=O)n(Cc4ccccc4C)cnc32)cc1 | – | 0.251 µM [falling, full curve]
COc1ccc(C2CC(c3ccccc3)=NN2C(=O)CSc2ncn[nH]2)cc1 (stereo not given) | – | 0.126 µM [rising, full curve, poor fit]
Cc1cccc2[nH]c3c(N4CCC5(CC4)OCCO5)ncnc3c12 | 8.91 µM [rising, partial curve] | 11.2 µM [rising, partial curve, poor fit]
S=C(Nc1ccc(Cl)cc1)N1CCN(C2CCCCC2)CC1 | – | 6.31 µM [rising, partial curve]
CC(C)(C)N(NC(=O)Nc1ccc(Cl)c(Cl)c1)C(=O)c1ccccc1 | 35.5 µM [falling, single point] | 35.5 µM [falling, single point]
CSc1ccc(S(=O)(=O)N2CCN(Cc3ccc4c(c3)OCO4)CC2)cc1 | 35.5 µM [rising, single point] | 35.5 µM [rising, single point]
CNS(=O)(=O)c1ccc(Oc2ccc(S(=O)(=O)NC)cc2)cc1 | – | 11.2 µM [rising, single point]
COc1ccc(C(=O)NC(=S)N2CCCCC2)cc1[N+](=O)[O-] | – | 0.224 µM [rising, full curve, poor fit]
CCOC(=O)N1CCC(NC(=O)c2cc(S(=O)(=O)N3CCc4ccccc43)cn2C)CC1 | 5.62 µM [rising, partial curve, poor fit] | 11.2 µM [rising, partial curve, poor fit]
Cc1cc(C)cc(SCc2noc(C(=O)NC(C)C)c2C(=O)O)c1 | 0.112 µM [falling, partial curve] | –

Laid out differently: results already given
SMILES	AC50 [1]	AC50 [2]
CNS(=O)(=O)c1ccc(Oc2ccc(S(=O)(=O)NC)cc2)cc1	–	11.2 µM [rising, single point]
COc1ccc(C(=O)NC(=S)N2CCCCC2)cc1[N+](=O)[O-]	–	0.224 µM [rising, full curve, poor fit]
CCOC(=O)N1CCC(NC(=O)c2cc(S(=O)(=O)N3CCc4ccccc43)cn2C)CC1	5.62 µM [rising, partial curve, poor fit]	11.2 µM [rising, partial curve, poor fit]
Cc1cc(C)cc(SCc2noc(C(=O)NC(C)C)c2C(=O)O)c1	0.112 µM [falling, partial curve]	–
